From paper doi:10.1101/2022.05.14.22275020
No constants are given. Whether binding was seen depends on the method and setting.

Molecular target: FICD^L258D-H363A, monomeric mutant (human) (UniProt Q9BVA6)
Assay: SEC

binding: no binding
B1: FICD^L258D-H363A, monomeric mutant (enzyme, UniProt Q9BVA6 104-445)
chain: LEARAALNQALEMKRQGKREKAQKLFMHALKMDPDFVDALTEFGIFSEEDKDIIQADYLYTRALTISPYHEKALVNRDRTLPLVEEIDQRYFSIIDSKVKKVMSIPKGNSALRRVMEETYYHHIYHTVAIEGNTLTLSEIRHILETRYAVPGKSDEEQNEVIGMHAAMKYINTTLVSRIGSVTISDVLEIHRRVLGYVDPVEAGRFRTTQVLVGHHIPPHPQDVEKQMQEFVQWLNSEEAMNLHPVEFAALAHYKLVYIAPFIDGNGRTSRLLMNLILMQAGYPPITIRKEQRSDYYHVLEAANEGDVRPFIRFIAKCTETTLDTLLFATTEYSVALPEAQP
